Assays:
[1] = acidic pH values (pH < 4)

With C[C@@H]1CN(Cc2ccc(F)cc2)CCN1C(=O)COc1ccc(Cl)cc1NC(N)=O [Piperazinharnstoff, (2R)-1-((4-chloro-2-(ureido)phenoxy)methyl)carbonyl-2-methyl-4-(4-fluorobenzyl)piperazin] the Löslichkeit [1] was “höherer Löslichkeit bei sauren pH-Werten” and the “Wirkstofffreisetzung im Medium mit pH 1” value was “geringer als erwartet”.

From patent publication EP1749519A1, “Dosage form with pH-independent sustained release for active substances with pH-dependent solubility” (Schering Aktiengesellschaft, priority 2005, dated 2007)
